# PubChem BioAssay AID1259254 – NCATS | 2017
# Test: 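Gene knock-downs that lead to re-replication, shown by excess G2 DNA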 (primary screen)
# Cell system: human HCT116 colorectal cancer cells
# Reagents: single siRNA against human genes
# Duration: 3 days
# Detection: 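Nuclei stained with Hoechst and imaged; cell-cycle phase assigned by DNA content; G2 share scaled per plate, non-targeting siRNA 0%, GMNN siRNA 100%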
# Scale: G2 robust z-score and G2 cells, % of GMNN control: higher = more G2 cells, more excess DNA replication; raw share of cells in G2: higher = larger share of cells with G2 DNA content
# Rule for the call: 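Active siRNAs have a G2 robust z of 5 or more median absolute deviations over the median, which in these data means about 38% or higher of GMNN control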
# This is one part, drawn at random, of about 59,000 reagents. About 1,550 of all reagents (2.6%) count as active. 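G2 share is only a proxy for re-replication; each gene was hit by three separate siRNAs, and active genes were retested.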 Raw values vary from plate to plate and are shown uncorrected. Entries without a mark were called inactive. Reagents against one gene are numbered here. The record does not give: the amount of reagent.
Gene,siRNA no.,G2 robust z-score,"G2 cells, % of GMNN control",raw share of cells in G2 (%)
SEC22B,1,-1.04,-4.37,2.07
SEC22B,2,-0.188,1.65,4.03
SEC22B,3,-0.558,-0.958,5.56
CTF1,1,0.469,6.26,8.24
CTF1,2,-0.00265,2.95,5.17
CTF1,3,1.7,14.9,9.36
ZFPM2,1,0.0203,3.11,4.93
ZFPM2,2,-1.39,-6.82,3.63
ZFPM2,3,1.18,11.3,7.94
TENT4A,1,-0.722,-2.11,5.52
TENT4A,2,0.9,9.3,7.27
TENT4A,3,-0.21,1.49,4.38
TIPE3,1,-0.127,2.07,4.48
TIPE3,2,0.606,7.23,6.55
TIPE3,3,0.141,3.96,6.33
TSC1,1,-1.32,-6.32,2.33
TSC1,2,0.402,5.79,6.19
TSC1,3,0.786,8.5,6.35
TNRC18P2,1,-0.787,-2.57,2.87
TNRC18P2,2,1.78,15.5,10.4
TNRC18P2,3,-0.0327,2.74,4.12
OMD,1,0.93,9.51,8.8
OMD,2,-0.554,-0.933,2.88
OMD,3,-0.642,-1.55,4.12
THADA,1,2.18,18.3,13.2
THADA,2,-0.0756,2.44,5.21
THADA,3,1.72,15,9.69
GALNT16,1,0.756,8.28,9.08
GALNT16,2,-0.0256,2.79,5.33
GALNT16,3,-0.6,-1.25,3.77
CYP2W1,1,-0.313,0.764,4.65
CYP2W1,2,-0.41,0.0859,6.47
CYP2W1,3,-0.814,-2.76,3.45
COL8A1,1,-0.385,0.26,5.05
COL8A1,2,0.508,6.54,7.38
COL8A1,3,0.167,4.14,5.52
ZNF610,1,0.423,5.94,5.14
ZNF610,2,1.32,12.3,7.42
ZNF610,3,0.401,5.79,5.56
MRTFA,1,-0.572,-1.06,5.43
MRTFA,2,-0.168,1.79,3.42
MRTFA,3,-0.464,-0.299,3.54
ZBED4,1,-0.269,1.07,3.88
ZBED4,2,2.87,23.1,16.3
ZBED4,3,0.765,8.35,6.84
GALK2,1,1.08,10.6,9.11
GALK2,2,-1.42,-7.01,3.05
GALK2,3,-0.743,-2.26,3.23

Only “G2 cells, % of GMNN control” (6 entries from above):
ZFPM2 #1: 3.11
ZFPM2 #2: -6.82
ZFPM2 #3: 11.3
TENT4A #1: -2.11
TENT4A #2: 9.3
TENT4A #3: 1.49
